Laboratory results as given in US4487708A (priority 1981, dated 1984).

Assay: stepwise test for identification of mu-amines with hydroquinone
Design: key: An asterisk (*) in a column indicates a positive result
Settings: for Results upon completion of Step 4: Possible mu-Amine / Results upon completion of Step 4: Not mu-Amine: 10 g amine, 10 g hydroquinone, 80 g water; for Results upon completion of Step 4: Possible mu-Amine: no precipitate; for Results upon completion of Step 8: Definite mu-Amine: at least 70% of dissolved oxygen removed within one minute, pH 9-10; for Results upon completion of Step 6: Possible mu-Amine: passes 5 micron filter paper unhindered; for Results upon completion of Step 4: Not mu-Amine: precipitation within the jar

Compound	Results upon completion of Step 4: Possible mu-Amine	Results upon completion of Step 8: Definite mu-Amine	Results upon completion of Step 6: Possible mu-Amine	Results upon completion of Step 4: Not mu-Amine
NCCNCCNCCN [Triethylenetetramine]	*	*	*	
CC(C)(C)N [tert-Butylamine]				*
CN(C)CCCN [Dimethylaminopropylamine]	*	*	*	
CC(O)CNCC(C)O (centres unmarked) [Diisopropanolamine]	*	*	*	
Dimethyl(iso)propanolamine	*	*	*	
COCCCN [Methoxypropylamine]	*	*	*	
NCCN [Ethylenediamine]	*	*	*	
C1CN2CCN1CC2 [Triethylenediamine]				*
C1COCCN1 [Morpholine]				*
NCCO [Monoethanolamine]	*	*	*	
CC(O)CN (centres unmarked) [Monoisopropanolamine]	*	*	*	
NCCCCCCN [Hexamethylenediamine]				*
CCC(C)N (centres unmarked) [sec-Butylamine]	*	*	*	
NC1CCCCC1 [Cyclohexylamine]				*
